Data as given in PubChem BioAssay AID588590 (National Center for Advancing Translational Sciences (NCATS), 2011).
In all, about 390,000 compounds went through this assay and about 4,000 (1%) were called active. Inconclusive means that the source gave no clear call. Such entries were picked first, then a sample of the others. Calls follow the shape of the dose curve; as a rule, active = well fitted inhibition curve with a large enough effect; inconclusive = small, poorly fitted or top-dose-only effect, or another doubt; inactive = no such curve, though single readings can be large or run the other way. Potencies beside an inconclusive call are fits to weak or partial responses and may not hold up.

The chains behind the UniProt entries cited, without tags or fusion partners. Where a name states a change or a piece, a line headed by the entry shows the natural chain unless it says otherwise.
UniProt Q9UNA4: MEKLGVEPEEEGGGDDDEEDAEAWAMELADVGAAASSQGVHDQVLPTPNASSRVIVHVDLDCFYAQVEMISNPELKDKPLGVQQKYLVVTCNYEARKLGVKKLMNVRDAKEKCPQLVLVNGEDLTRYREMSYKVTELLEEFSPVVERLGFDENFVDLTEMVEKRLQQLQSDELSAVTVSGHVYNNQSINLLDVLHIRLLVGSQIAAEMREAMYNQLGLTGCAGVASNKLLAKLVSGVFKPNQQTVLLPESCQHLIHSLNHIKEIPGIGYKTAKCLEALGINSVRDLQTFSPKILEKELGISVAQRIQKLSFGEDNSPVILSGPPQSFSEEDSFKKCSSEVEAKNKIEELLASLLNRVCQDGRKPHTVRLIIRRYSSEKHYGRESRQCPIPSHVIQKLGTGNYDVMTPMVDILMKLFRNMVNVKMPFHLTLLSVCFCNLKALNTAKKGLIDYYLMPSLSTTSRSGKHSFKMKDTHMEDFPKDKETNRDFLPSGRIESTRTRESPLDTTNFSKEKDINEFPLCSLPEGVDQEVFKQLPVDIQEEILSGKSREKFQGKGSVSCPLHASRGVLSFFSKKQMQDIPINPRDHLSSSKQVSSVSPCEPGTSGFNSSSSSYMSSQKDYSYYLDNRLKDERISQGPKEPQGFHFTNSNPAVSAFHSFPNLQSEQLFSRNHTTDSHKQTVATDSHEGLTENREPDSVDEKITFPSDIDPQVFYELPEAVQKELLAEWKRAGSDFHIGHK

What follows are compounds tested against DNA polymerase iota (Homo sapiens) (UniProt Q9UNA4) (assay: qHTS for Inhibitors of Polymerase Iota). Conditions: Pol iota fluorescent replication assay, 10 min; series mostly up to 115 µM; activity, negative = inhibition: at the top concentration.
Summary of the method: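 Pol iota at 10 nM preincubated 15 min with compounds at room temperature; reaction started with fluorescent substrate, 50 nM final. Fluorescence read kinetically at 0 and 10 min; buffer-only wells as negative control.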
Potency is read from the fitted curve at half-maximal effect.

Potency, inconclusive:
CCOc1ccccc1NC(=O)C1CCCN1S(=O)(=O)c1ccc2nc(-c3ccccc3)[nH]c2c1 (stereo not drawn) 100 µM [inhibitor, partial curve, poor fit]
O=C(NCCc1ccccc1)c1ccc(Cl)cc1[N+](=O)[O-] 79.4 µM [inhibitor, single point]
CCOc1ccc(-n2ccnc(SCC(=O)Nc3ccc(OC)cc3OC)c2=O)cc1 20 µM [inhibitor, partial curve, poor fit]
CCOc1ccc(-n2c(O)c(/C=N/NC(=O)C3COc4ccccc4O3)c3ccccc3c2=O)cc1 (stereo not drawn) 31.6 µM [inhibitor, partial curve, poor fit]
CCN1CCN(CNC(=O)c2cnccn2)CC1 89.1 µM [inhibitor, single point]
O=C(COc1ccc(F)cc1)OCc1cc(=O)n2nc(-c3cccs3)sc2n1 89.1 µM [inhibitor, partial curve, poor fit]
CC(=O)Nc1ccc(NC(=O)COC(=O)c2ccc([N+](=O)[O-])o2)cc1 39.8 µM [inhibitor, partial curve]
C[C@H](NC(=O)c1ncn(C)c1C(=O)N[C@@H](C)c1ccccc1)c1ccccc1 28.2 µM [inhibitor, single point]
O=C(Cn1nnc(-c2ccc([N+](=O)[O-])cc2)n1)NNC(=O)c1ccccc1 39.8 µM [inhibitor, partial curve]
COc1ccc(OCCSc2nc(N)cc(N)n2)cc1 2.51 µM [inhibitor, full curve, poor fit]
Cc1onc(-c2ccccc2Cl)c1C(=O)Nc1sc2c(c1C(N)=O)CCC(C)C2 (stereo not drawn) 39.8 µM [inhibitor, single point]
COc1ccc(S(=O)(=O)NCCC(=O)OCC(=O)c2ccc[nH]2)cc1[N+](=O)[O-] 50.1 µM [inhibitor, single point]
COc1cccc(CN2CC(C(=O)NCc3cccc(N4CCCC4)c3)CCC2=O)c1 (stereo not drawn) 70.8 µM [inhibitor, partial curve]
COc1ccccc1C1CC(=O)Oc2ccc(C(C)(C)C)cc21 (stereo not drawn) 56.2 µM [inhibitor, partial curve, poor fit]

Fetched one by one from above, 2 records:
Potency, inconclusive:
COc1ccccc1C1CC(=O)Oc2ccc(C(C)(C)C)cc21 (stereo not drawn) 56.2 µM [inhibitor, partial curve, poor fit]
C[C@H](NC(=O)c1ncn(C)c1C(=O)N[C@@H](C)c1ccccc1)c1ccccc1 28.2 µM [inhibitor, single point]

Next part:

activity, negative = inhibition, inactive:
O=C(NC1CCCCC1)c1ccc2c(c1)N(Cc1ccccc1Cl)C(=O)c1ccccc1S2 -23.1%
Cc1cc(Cl)ccc1Nc1nc(NCc2ccco2)nc2nccnc12 0.868%
Clc1ccc(-c2cn3cc(Cl)ccc3n2)cc1 -23.5%
O=C(N/N=C\c1ccncc1)c1ccc(Br)s1 21%
